The chains behind the UniProt entries cited, without tags or fusion partners.
UniProt Q92560: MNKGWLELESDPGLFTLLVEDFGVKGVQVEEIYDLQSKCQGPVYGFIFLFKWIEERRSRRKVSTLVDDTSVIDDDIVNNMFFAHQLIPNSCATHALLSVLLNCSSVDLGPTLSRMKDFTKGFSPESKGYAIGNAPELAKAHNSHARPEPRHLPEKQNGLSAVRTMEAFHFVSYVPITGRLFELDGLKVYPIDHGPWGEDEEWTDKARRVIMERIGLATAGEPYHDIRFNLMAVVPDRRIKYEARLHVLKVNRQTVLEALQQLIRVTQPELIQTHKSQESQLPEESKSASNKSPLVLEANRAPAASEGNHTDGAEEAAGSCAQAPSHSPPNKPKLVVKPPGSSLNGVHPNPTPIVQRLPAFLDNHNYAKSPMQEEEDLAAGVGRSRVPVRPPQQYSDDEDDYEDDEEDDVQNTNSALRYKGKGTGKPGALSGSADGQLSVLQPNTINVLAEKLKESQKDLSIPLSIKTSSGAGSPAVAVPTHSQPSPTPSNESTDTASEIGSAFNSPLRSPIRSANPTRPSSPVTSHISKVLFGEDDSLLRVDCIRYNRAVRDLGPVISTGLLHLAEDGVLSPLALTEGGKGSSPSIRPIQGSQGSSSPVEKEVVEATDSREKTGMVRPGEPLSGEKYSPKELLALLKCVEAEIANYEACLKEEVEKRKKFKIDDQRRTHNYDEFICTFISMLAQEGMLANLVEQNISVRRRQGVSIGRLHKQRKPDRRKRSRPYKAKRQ
UniProt O00410: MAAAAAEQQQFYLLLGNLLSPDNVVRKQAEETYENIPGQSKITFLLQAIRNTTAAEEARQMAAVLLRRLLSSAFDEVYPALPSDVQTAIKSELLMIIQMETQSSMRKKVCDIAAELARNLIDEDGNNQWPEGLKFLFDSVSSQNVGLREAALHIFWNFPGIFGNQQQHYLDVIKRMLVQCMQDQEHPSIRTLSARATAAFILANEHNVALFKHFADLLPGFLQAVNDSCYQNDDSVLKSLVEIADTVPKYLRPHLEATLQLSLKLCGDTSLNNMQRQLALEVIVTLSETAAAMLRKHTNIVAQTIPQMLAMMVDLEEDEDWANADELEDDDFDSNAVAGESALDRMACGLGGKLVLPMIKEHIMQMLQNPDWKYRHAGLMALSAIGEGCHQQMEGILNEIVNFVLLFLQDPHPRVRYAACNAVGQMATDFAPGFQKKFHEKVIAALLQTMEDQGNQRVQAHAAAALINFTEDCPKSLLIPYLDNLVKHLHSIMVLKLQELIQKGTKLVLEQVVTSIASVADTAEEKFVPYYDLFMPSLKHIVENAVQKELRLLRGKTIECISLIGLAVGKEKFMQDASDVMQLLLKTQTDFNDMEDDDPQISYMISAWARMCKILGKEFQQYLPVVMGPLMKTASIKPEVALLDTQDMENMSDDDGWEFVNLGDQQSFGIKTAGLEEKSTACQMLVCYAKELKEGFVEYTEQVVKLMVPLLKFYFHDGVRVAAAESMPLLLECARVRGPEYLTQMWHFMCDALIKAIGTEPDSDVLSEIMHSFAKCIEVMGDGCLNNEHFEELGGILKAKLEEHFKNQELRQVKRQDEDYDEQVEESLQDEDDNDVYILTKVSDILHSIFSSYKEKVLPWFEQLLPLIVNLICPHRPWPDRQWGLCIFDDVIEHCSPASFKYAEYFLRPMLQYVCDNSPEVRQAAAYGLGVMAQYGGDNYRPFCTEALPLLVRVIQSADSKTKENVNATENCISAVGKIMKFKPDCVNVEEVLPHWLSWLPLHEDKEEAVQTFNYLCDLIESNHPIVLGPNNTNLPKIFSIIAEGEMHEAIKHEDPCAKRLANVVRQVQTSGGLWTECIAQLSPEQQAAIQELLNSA
UniProt P62258: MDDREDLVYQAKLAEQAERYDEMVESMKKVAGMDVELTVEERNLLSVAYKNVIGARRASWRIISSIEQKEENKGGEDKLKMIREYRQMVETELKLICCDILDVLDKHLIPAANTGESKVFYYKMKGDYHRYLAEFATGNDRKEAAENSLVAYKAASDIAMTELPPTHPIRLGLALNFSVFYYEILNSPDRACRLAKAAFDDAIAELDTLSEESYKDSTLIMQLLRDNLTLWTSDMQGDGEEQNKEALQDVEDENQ
UniProt Q13185: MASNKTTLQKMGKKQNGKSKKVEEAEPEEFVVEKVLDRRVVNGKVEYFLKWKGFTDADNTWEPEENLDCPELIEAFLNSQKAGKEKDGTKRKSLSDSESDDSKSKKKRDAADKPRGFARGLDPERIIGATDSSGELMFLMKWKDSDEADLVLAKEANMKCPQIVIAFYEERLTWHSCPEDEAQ
UniProt P31946: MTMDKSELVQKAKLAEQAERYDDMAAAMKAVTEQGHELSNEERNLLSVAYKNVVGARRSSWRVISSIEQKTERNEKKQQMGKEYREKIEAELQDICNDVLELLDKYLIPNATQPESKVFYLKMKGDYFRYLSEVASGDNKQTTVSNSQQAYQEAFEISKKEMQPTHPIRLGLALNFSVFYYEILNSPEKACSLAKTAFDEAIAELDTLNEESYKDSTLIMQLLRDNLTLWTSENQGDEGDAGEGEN

According to paper PMC5913307:

molecular target: FLAG-tagged BAP1 (BRCA1-associated protein 1) in SK-N-SH cells (human) (UniProt Q92560); experiment: affinity purification with mass spectrometry; immunoprecipitation of FLAG-tagged BAP1 in SK-N-SH cells, in-gel digestion, LC-MS/MS (Orbitrap Fusion)

binding	Substance
binds	IPO5 (from UniProt O00410 1-1097)
binds	14-3-3-ε (endogenous, SK-N-SH) (from UniProt P62258 1-255)
binds	CBX3 (from UniProt Q13185 1-183)
binds	14-3-3-β (endogenous, SK-N-SH) (from UniProt P31946 1-246)

These are yes or no findings as the source states them, for the method shown. Binding seen in cells or lysates may run through a third protein. These calls come from enrichment with a bait or labelling near it, and not all partners need be listed.
